Measured values taken from patent US6610304B1, “Liposomes containing multiple branch peptide constructions for use against human immunodeficiency virus” (priority 1997, dated 2003).
Part of at least one peptide drawing is inferred or uncertain, most often the ends.

Tested on: HIV-1 Hx10 clone
Assay: Fusion assay: inhibition of syncytium formation
Type: cell-based
Settings: concentration 10^−6 M, C8166 cells
Description: C8166 cells were incubated at 37° C. with HIV-1 Hx10 clone (B. Hahn, University of Alabama, USA) in the presence of test substances (SPC3, SPC RL, empty liposomes of 110 nm and 250 nm average size, and dialysed and non-dialysed liposomes of those sizes containing SPC3) and in the absence of any test substance (control). The samples were inspected by phase contrast microscopy and syncytia were scored after 48 and 72 hours of incubation in 96-well flat-bottomed cultured plates. Experiments were performed three times in duplicate and identical results were obtained. The presence of syncytia is indicated by + signs. allocated as follows: […]

C[C@H](NC(=O)[C@H](CCCNC(=N)N)NC(=O)CNC(=O)[C@@H]1CCCN1C(=O)CN)C(=O)N[C@@H](Cc1ccccc1)C(=O)NCCCC[C@H](NC(=O)[C@H](Cc1ccccc1)NC(=O)[C@H](C)NC(=O)[C@H](CCCNC(=N)N)NC(=O)CNC(=O)[C@@H]1CCCN1C(=O)CN)C(=O)NCCCC[C@H](NC(=O)[C@H](CCCCNC(=O)[C@H](Cc1ccccc1)NC(=O)[C@H](C)NC(=O)[C@H](CCCNC(=N)N)NC(=O)CNC(=O)[C@@H]1CCCN1C(=O)CN)NC(=O)[C@H](Cc1ccccc1)NC(=O)[C@H](C)NC(=O)[C@H](CCCNC(=N)N)NC(=O)CNC(=O)[C@@H]1CCCN1C(=O)CN)C(=O)NCCCC[C@H](NC(=O)[C@H](CCCCNC(=O)[C@H](CCCCNC(=O)[C@H](Cc1ccccc1)NC(=O)[C@H](C)NC(=O)[C@H](CCCNC(=N)N)NC(=O)CNC(=O)[C@@H]1CCCN1C(=O)CN)NC(=O)[C@H](Cc1ccccc1)NC(=O)[C@H](C)NC(=O)[C@H](CCCNC(=N)N)NC(=O)CNC(=O)[C@@H]1CCCN1C(=O)CN)NC(=O)[C@H](CCCCNC(=O)[C@H](Cc1ccccc1)NC(=O)[C@H](C)NC(=O)[C@H](CCCNC(=N)N)NC(=O)CNC(=O)[C@@H]1CCCN1C(=O)CN)NC(=O)[C@H](Cc1ccccc1)NC(=O)[C@H](C)NC(=O)[C@H](CCCNC(=N)N)NC(=O)CNC(=O)[C@@H]1CCCN1C(=O)CN)C(=O)NCCC(=O)O [SPC3, (GPGRAF)8-(K)4-(K)2-K-βA-OH]
Syncitia Formation (Day 2 post-infection): +/− (+/−=>95 % decrease)
Syncitia Formation (Day 3 post-infection): +/− (+/−=>95 % decrease)
